{"source": "the supplement of paper PMC4635364", "key": {"ReNCell VM [1]": {"tested_on": "ReNCell VM", "test": "neuronal differentiation score (DCX+ cell fraction vs untreated, manual image score) (score (-3 to 3)); higher = more neuronal differentiation", "conditions": "2 uM, 2 weeks"}, "ReNCell VM [2]": {"tested_on": "ReNCell VM", "test": "dopaminergic neuron differentiation score (TH+ cell fraction vs untreated, manual image score) (score (0 to 3)); higher = more TH+ dopaminergic neuron differentiation", "conditions": "2 uM, 4 weeks, BDNF 10 ng/ml + GDNF 10 ng/ml"}}, "note": "The other results are listed elsewhere or left out. Single values are uncertain here, since repeats match poorly.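 Human fetal ventral-midbrain neural progenitor line ReNCell VM, differentiated without mitogens. Images stained for doublecortin (early neurons) or tyrosine hydroxylase (dopaminergic neurons) were scored by blinded raters against untreated wells (0 = no change). Repeats and both raters were averaged, and compounds averaging 2 or higher were picked as hits for retesting.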", "data": [{"smiles": "COc1ccc(-c2coc3cc(O)cc(O)c3c2=O)cc1", "values": [{"measurement": "neuronal differentiation score", "setting": "ReNCell VM [1]; library: Spectrum", "value": "inactive: 0"}, {"measurement": "dopaminergic neuron differentiation score", "setting": "ReNCell VM [2]; library: Spectrum", "value": "inactive: 0"}]}, {"smiles": "Nc1ccc(C(=O)NCC(=O)O)cc1", "values": [{"measurement": "neuronal differentiation score", "setting": "ReNCell VM [1]; library: Spectrum", "value": "inactive: 0"}, {"measurement": "dopaminergic neuron differentiation score", "setting": "ReNCell VM [2]; library: Spectrum", "value": "inactive: 0"}]}, {"smiles": "N=C(N)NS(=O)(=O)c1ccc(N)cc1", "values": [{"measurement": "neuronal differentiation score", "setting": "ReNCell VM [1]; library: Spectrum", "value": "inactive: 0"}, {"measurement": "dopaminergic neuron differentiation score", "setting": "ReNCell VM [2]; library: Spectrum", "value": "inactive: 0"}]}, {"smiles": "O=C1C(CC[S+]([O-])c2ccccc2)C(=O)N(c2ccccc2)N1c1ccccc1", "note": "(centres undefined)", "values": [{"measurement": "neuronal differentiation score", "setting": "ReNCell VM [1]; library: Spectrum", "value": "inactive: 0"}, {"measurement": "dopaminergic neuron differentiation score", "setting": "ReNCell VM [2]; library: Spectrum", "value": "inactive: 0"}]}, {"smiles": "C[C@]12CC[C@H]3C(=CCc4cc(O)ccc43)[C@@H]1CCC2=O", "values": [{"measurement": "neuronal differentiation score", "setting": "ReNCell VM [1]; library: Spectrum", "value": "inactive: 0"}, {"measurement": "dopaminergic neuron differentiation score", "setting": "ReNCell VM [2]; library: Spectrum", "value": "inactive: 0"}]}, {"smiles": "Cc1nnc(-c2ccc3occ(-c4ccc([S+](C)[O-])cc4)c3c2)o1", "note": "(centres undefined)", "values": [{"measurement": "neuronal differentiation score", "setting": "ReNCell VM [1]; library: Tocriscreen", "value": "active: 3"}, {"measurement": "dopaminergic neuron differentiation score", "setting": "ReNCell VM [2]; library: Tocriscreen", "value": "inactive: 0"}]}, {"smiles": "Cc1c(Cl)cccc1Nc1ccccc1C(=O)O", "values": [{"measurement": "neuronal differentiation score", "setting": "ReNCell VM [1]; library: Spectrum", "value": "inactive: 0"}, {"measurement": "dopaminergic neuron differentiation score", "setting": "ReNCell VM [2]; library: Spectrum", "value": "inactive: 0"}]}, {"smiles": "O=c1[nH]c(=O)n([C@H]2C[C@H](O)[C@@H](CO)O2)cc1/C=C/Br", "note": "[(E)-5-(2-Bromovinyl)-2'-deoxyuridine]", "values": [{"measurement": "neuronal differentiation score", "setting": "ReNCell VM [1]; library: LOPAC", "value": "inactive: 0"}, {"measurement": "dopaminergic neuron differentiation score", "setting": "ReNCell VM [2]; library: LOPAC", "value": "inactive: 0"}]}, {"smiles": "C[C@@H](O)[C@H]1C(=O)N2C(C(=O)O)=C(S[C@@H]3CN[C@H](C(=O)N(C)C)C3)[C@H](C)[C@H]12", "note": "[Meropenem]", "values": [{"measurement": "neuronal differentiation score", "setting": "ReNCell VM [1]; library: Prestwick", "value": "inactive: 0"}, {"measurement": "dopaminergic neuron differentiation score", "setting": "ReNCell VM [2]; library: Prestwick", "value": "inactive: 0"}]}, {"smiles": "N=C(N)NC(=O)c1nc(Cl)c(N)nc1N", "values": [{"measurement": "neuronal differentiation score", "setting": "ReNCell VM [1]; library: Spectrum", "value": "inactive: 0"}, {"measurement": "dopaminergic neuron differentiation score", "setting": "ReNCell VM [2]; library: Spectrum", "value": "inactive: 0"}]}, {"smiles": "COc1ccc(-c2cc(=O)c3c(O)cc(OC)c(OC)c3o2)c(OC)c1", "values": [{"measurement": "neuronal differentiation score", "setting": "ReNCell VM [1]; library: Spectrum", "value": "inactive: 0"}, {"measurement": "dopaminergic neuron differentiation score", "setting": "ReNCell VM [2]; library: Spectrum", "value": "inactive: 1"}]}, {"smiles": "COc1cc(OC)c(C=C2C(=O)Nc3ccccc32)c(OC)c1", "values": [{"measurement": "neuronal differentiation score", "setting": "ReNCell VM [1]; library: LOPAC", "value": "inactive: 1"}, {"measurement": "dopaminergic neuron differentiation score", "setting": "ReNCell VM [2]; library: LOPAC", "value": "inactive: 0"}]}, {"smiles": "COC(=O)C[C@H]1C(C)(C)[C@@H](OC(C)=O)[C@@H]2CC3C4CC(=O)O[C@@H](c5ccoc5)[C@]4(C)CCC3[C@@]1(C)C2=O", "note": "(some centres undefined)", "values": [{"measurement": "neuronal differentiation score", "setting": "ReNCell VM [1]; library: Spectrum", "value": "inactive: 0"}, {"measurement": "dopaminergic neuron differentiation score", "setting": "ReNCell VM [2]; library: Spectrum", "value": "inactive: 0"}]}, {"smiles": "CN[C@@H]1[C@H](O)[C@H](NC)[C@H]2O[C@@]3(O)C(=O)C[C@@H](C)O[C@H]3O[C@@H]2[C@H]1O", "note": "[spectinomycin]", "values": [{"measurement": "neuronal differentiation score", "setting": "ReNCell VM [1]; library: Natural", "value": "inactive: 0"}, {"measurement": "dopaminergic neuron differentiation score", "setting": "ReNCell VM [2]; library: Natural", "value": "inactive: 0"}]}, {"smiles": "O=C(O)c1ccc(S(=O)(=O)N(Cl)Cl)cc1", "values": [{"measurement": "neuronal differentiation score", "setting": "ReNCell VM [1]; library: Spectrum", "value": "inactive: 0"}, {"measurement": "dopaminergic neuron differentiation score", "setting": "ReNCell VM [2]; library: Spectrum", "value": "inactive: 0"}]}, {"smiles": "COc1ccc(-c2coc3c(O)c(O)c(OC)cc3c2=O)cc1", "values": [{"measurement": "neuronal differentiation score", "setting": "ReNCell VM [1]; library: Spectrum", "value": "inactive: 0"}, {"measurement": "dopaminergic neuron differentiation score", "setting": "ReNCell VM [2]; library: Spectrum", "value": "inactive: 0"}]}, {"smiles": "Cc1cccc(C)c1NC(=O)C1CCCCN1C", "note": "(centres undefined)", "values": [{"measurement": "neuronal differentiation score", "setting": "ReNCell VM [1]; library: Spectrum", "value": "inactive: 0"}, {"measurement": "dopaminergic neuron differentiation score", "setting": "ReNCell VM [2]; library: Spectrum", "value": "inactive: 0"}]}, {"smiles": "C[C@]1(Cn2ccnn2)[C@H](C(=O)O)N2C(=O)C[C@H]2S1(=O)=O", "note": "[Tazobactam]", "values": [{"measurement": "neuronal differentiation score", "setting": "ReNCell VM [1]; library: Prestwick", "value": "inactive: 0"}, {"measurement": "dopaminergic neuron differentiation score", "setting": "ReNCell VM [2]; library: Prestwick", "value": "inactive: 0"}]}, {"smiles": "C[C@@H]1C[C@H]2[C@@H]3CCC4=CC(=O)C=C[C@]4(C)[C@@]3(F)[C@@H](O)C[C@]2(C)[C@@]1(O)C(=O)CO", "values": [{"measurement": "neuronal differentiation score", "setting": "ReNCell VM [1]; library: Spectrum", "value": "inactive: 0"}, {"measurement": "dopaminergic neuron differentiation score", "setting": "ReNCell VM [2]; library: Spectrum", "value": "inactive: 0"}]}, {"smiles": "COC(=O)c1c(C)cc(O)cc1O", "values": [{"measurement": "neuronal differentiation score", "setting": "ReNCell VM [1]; library: Spectrum", "value": "inactive: 0"}, {"measurement": "dopaminergic neuron differentiation score", "setting": "ReNCell VM [2]; library: Spectrum", "value": "inactive: 0"}]}, {"smiles": "C[C@H](N)[C@H](O)c1cccc(O)c1", "note": "[Metaraminol bitartrate]", "values": [{"measurement": "neuronal differentiation score", "setting": "ReNCell VM [1]; library: Prestwick", "value": "inactive: 0"}, {"measurement": "dopaminergic neuron differentiation score", "setting": "ReNCell VM [2]; library: Prestwick", "value": "inactive: 0"}]}, {"smiles": "O=c1c2ccccc2oc2ccccc12", "values": [{"measurement": "neuronal differentiation score", "setting": "ReNCell VM [1]; library: Spectrum", "value": "inactive: 0"}, {"measurement": "dopaminergic neuron differentiation score", "setting": "ReNCell VM [2]; library: Spectrum", "value": "inactive: 0"}]}, {"smiles": "CC[C@H](CC[C@@H](C)[C@H]1CC[C@H]2[C@@H]3CC=C4C[C@@H](OC(C)=O)CC[C@]4(C)[C@H]3CC[C@]12C)C(C)C", "values": [{"measurement": "neuronal differentiation score", "setting": "ReNCell VM [1]; library: Spectrum", "value": "inactive: 0"}, {"measurement": "dopaminergic neuron differentiation score", "setting": "ReNCell VM [2]; library: Spectrum", "value": "inactive: 0"}]}, {"smiles": "C=C1C(N)CC2CC1C2(C)C", "note": "(stereo not drawn) [3-AMINO-beta-PINENE]", "values": [{"measurement": "neuronal differentiation score", "setting": "ReNCell VM [1]; library: Spectrum", "value": "inactive: 0"}, {"measurement": "dopaminergic neuron differentiation score", "setting": "ReNCell VM [2]; library: Spectrum", "value": "inactive: 0"}]}, {"smiles": "COc1cc2c(cc1OC)C(c1c[nH]c3ccccc13)NCC2", "note": "(centres undefined)", "values": [{"measurement": "neuronal differentiation score", "setting": "ReNCell VM [1]; library: Natural", "value": "inactive: 0"}, {"measurement": "dopaminergic neuron differentiation score", "setting": "ReNCell VM [2]; library: Natural", "value": "inactive: 0"}]}, {"smiles": "C=C1C[C@]23C[C@@]1(O)CC[C@H]2[C@@]12C=C[C@H](O)[C@@](C)(C(=O)O1)[C@H]2[C@@H]3C(=O)O", "note": "[Gibberellic acid]", "values": [{"measurement": "neuronal differentiation score", "setting": "ReNCell VM [1]; library: Phytochemical", "value": "inactive: 0"}, {"measurement": "dopaminergic neuron differentiation score", "setting": "ReNCell VM [2]; library: Phytochemical", "value": "inactive: 0"}]}, {"smiles": "CO[C@@]1(NC(=O)Cc2cccs2)C(=O)N2C(C(=O)O)=C(COC(N)=O)CS[C@@H]21", "values": [{"measurement": "neuronal differentiation score", "setting": "ReNCell VM [1]; library: Spectrum", "value": "inactive: 0"}, {"measurement": "dopaminergic neuron differentiation score", "setting": "ReNCell VM [2]; library: Spectrum", "value": "inactive: 0"}]}]}
